From PubChem BioAssay (EPA / NIEHS)
Values joined by “and” are separate entries in the source; they are usually repeats but may differ in a detail not shown here. Identical values can stand only once. Inconclusive results, whose numbers are uncertain, are shown with a selection of clear calls. A potency beside an inconclusive call is a rough fit, not a confirmed value. More than one record can exist for a structure, and the calls need not agree. Active and inactive are the calls of the source. The calls were made as follows: active = hit-call score of the fitted dose curve at least 0.9, where 1 is the maximum; inconclusive = response in the unintended direction; inactive = score below 0.9.

Sequences of proteins named here, by UniProt entry; tags and fusion partners are left off.
UniProt P04637, whole entry, looked up: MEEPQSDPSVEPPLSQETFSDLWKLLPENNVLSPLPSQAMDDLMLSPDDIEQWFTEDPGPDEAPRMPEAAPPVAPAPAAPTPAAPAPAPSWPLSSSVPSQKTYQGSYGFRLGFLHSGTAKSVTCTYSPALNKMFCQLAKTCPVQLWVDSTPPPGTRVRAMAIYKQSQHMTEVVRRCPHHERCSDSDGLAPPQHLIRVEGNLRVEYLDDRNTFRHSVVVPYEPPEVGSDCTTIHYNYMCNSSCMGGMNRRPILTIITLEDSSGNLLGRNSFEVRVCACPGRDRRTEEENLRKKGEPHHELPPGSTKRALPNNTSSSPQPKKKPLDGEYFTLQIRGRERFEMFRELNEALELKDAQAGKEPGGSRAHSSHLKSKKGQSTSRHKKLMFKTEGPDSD

Assays:
[1] = TOX21_p53_BLA_p3_viability: Viability Assessment in the Tox21 HCT-116 p53 Agonism Beta-lactamase Assay, Phase 3 (AID 2283593);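 also: cells exposed to compound for 16 h before reading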
Outline: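 Cellular ATP was quantified by CellTiter-Glo luminescence, read after 30 min at room temperature. Beforehand, HCT116 cells (4000/well) received compound 5 h post-seeding, 217-fold diluted from DMSO, then incubated 16 h at 37C.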

[2] = TOX21_p53_BLA_p5_viability: Viability Assessment in the Tox21 HCT-116 p53 Agonism Beta-lactamase Assay, Phase 5 (AID 2283600)
Outline: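 Cells were plated at 4000/well, rested 5 h at 37C, then given compounds in DMSO (217-fold dilution) for 16 h at 37C, 5% CO2. Following the CCF4-AM beta-lactamase read, CellTiter-Glo was added and luminescence was read after 30 min at room temperature.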

[3] = target: Cellular tumor antigen p53 (Homo sapiens) (UniProt P04637); assay: TOX21_p53_BLA_p3_ratio: Tox21 HCT-116 p53 Agonism Beta-lactamase Assay, Ratio, Phase 3 (AID 2283596)
Outline: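 HCT116 p53-bla cells (4000/well) given compound in DMSO (217-fold dilution) after 5 h, incubated 16 h at 37C. CCF4-AM substrate 2 h at room temperature; 460/530 nm emission ratio, gain fitted against DMSO.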

[4] = target: Cellular tumor antigen p53 (Homo sapiens) (UniProt P04637); assay: TOX21_p53_BLA_p4_ratio: Tox21 HCT-116 p53 Agonism Beta-lactamase Assay, Ratio, Phase 4 (AID 2283601)
Outline: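 Signal is the blue/green (460nm/530nm) ratio of cleaved versus uncleaved CCF4-AM substrate, read after 2 h substrate loading. Cells were HCT116 carrying the p53-responsive beta-lactamase reporter, dosed 16 h at 37C, 5% CO2; CellTiter-Glo measured in parallel.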

[5] = TOX21_p53_BLA_p2_viability: Viability Assessment in the Tox21 HCT-116 p53 Agonism Beta-lactamase Assay, Phase 2 (AID 2283591);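 also: compound exposure lasted 16 h at 37 °C; actives lower the ATP signal meaning cytotoxicity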
Outline: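 Cytotoxicity readout: CellTiter-Glo ATP luminescence, 30 min at room temperature, after the beta-lactamase read. Cells were HCT116 exposed 16 h at 37C to compounds pin-transferred at 217-fold dilution from DMSO stocks.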

[6] = TOX21_p53_BLA_p4_viability: Viability Assessment in the Tox21 HCT-116 p53 Agonism Beta-lactamase Assay, Phase 4 (AID 2283597);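 also: hits lower the luminescence signal meaning cytotoxicity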
Outline: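 HCT116 p53-bla cells (4000/well) rested 5 h at 37C, then received compounds in DMSO (217-fold dilution) for 16 h at 37C, 5% CO2. CellTiter-Glo was added after the CCF4-AM read, and luminescence was read after 30 min at room temperature.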

[7] = target: Cellular tumor antigen p53 (Homo sapiens) (UniProt P04637); assay: TOX21_p53_BLA_p5_ratio: Tox21 HCT-116 p53 Agonism Beta-lactamase Assay, Ratio, Phase 5 (AID 2283599)
Outline: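 Beta-lactamase reporter ratio (blue 460 nm over green 530 nm, 405 nm excitation) after 2 h CCF4-AM loading, in HCT-116 cells exposed 16 h at 37 C to compounds pinned at 217-fold dilution. Increases relative to DMSO baseline scored.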

[8] = target: Cellular tumor antigen p53 (Homo sapiens) (UniProt P04637); assay: TOX21_p53_BLA_p2_ratio: Tox21 HCT-116 p53 Agonism Beta-lactamase Assay, Ratio, Phase 2 (AID 2283592)
Outline: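 HCT116 cells carrying a p53-responsive beta-lactamase reporter were plated, incubated 5 h at 37C, then dosed with compounds in DMSO (217-fold dilution) for 16 h. CCF4-AM substrate was added for 2 h at room temperature; the 460/530 nm emission ratio gave gain-of-signal activity relative to DMSO.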

Question: Which outcome [1] does the source give for `CC(=O)OC(c1ccccc1)C(Cl)(Cl)Cl` (stereo not drawn) here?
Answer: inactive

Question: And the AC50 [2]?
Answer: inconclusive: 0.0772 µM

Question: With `NN=C(N)N` as the molecule, how does the outcome [3] read?
Answer: inactive

Question: And the AC50 [4]?
Answer: inconclusive: 46.1 µM

Question: With `O=C(NC(=O)c1c(F)cccc1F)Nc1cc(Cl)c(F)c(Cl)c1F` as the molecule, how does the outcome [1] read?
Answer: inactive

Question: For `C[C@H]1O[C@@H](O[C@H]2[C@@H](O)C[C@H](O[C@H]3[C@@H](O)C[C@H](O[C@H]4CC[C@@]5(C)[C@H](CC[C@@H]6[C@@H]5CC[C@]5(C)[C@@H](C7=CC(=O)OC7)CC[C@]65O)C4)O[C@@H]3C)O[C@@H]2C)C[C@H](O)[C@@H]1O`, which AC50 [5] is on record?
Answer: active: 35.6 nM and active: 51.1 nM

Question: And the AC50 [1]?
Answer: active: 30 nM and active: 51.3 nM

Question: What about the AC50 [6] of the same molecule?
Answer: active: 40.5 nM and active: 66.7 nM

Question: What about the AC50 [7] of the same molecule?
Answer: inconclusive: 1.45 µM

Question: And the AC50 [2]?
Answer: active: 0.028 µM

Question: With `O=NN1CCCCCCC1` as the molecule, how does the AC50 [5] read?
Answer: inconclusive: 46.1 µM

Question: What about the AC50 [1] of the same molecule?
Answer: inconclusive: 46.1 µM and inconclusive: 77 µM

Question: What about the AC50 [6] of the same molecule?
Answer: inconclusive: 46 µM

Question: And the AC50 [2]?
Answer: inconclusive: 46.1 µM

Question: What about the outcome [4] of the same molecule?
Answer: inactive

Question: Which AC50 [1] does the source give for `CC1(C)CC(=O)CC(C)(C)N1[O]` here?
Answer: inconclusive: 46.1 µM

Question: And the AC50 [3]?
Answer: inconclusive: 46.1 µM

Question: What about the outcome [6] of the same molecule?
Answer: inactive

Question: What about the AC50 [7] of the same molecule?
Answer: inconclusive: 46.1 µM

Question: And the outcome [2]?
Answer: inactive

Question: For `CC(C)Nc1ccc(Nc2ccccc2)cc1`, which AC50 [5] is on record?
Answer: active: 46.1 µM and active: 45.9 µM and active: 23 µM

Question: And the AC50 [6]?
Answer: active: 46.1 µM and active: 45.9 µM and active: 19.2 µM

Question: And the AC50 [7]?
Answer: active: 66.4 µM and active: 78.4 µM and active: 24 µM

Question: What about the AC50 [4] of the same molecule?
Answer: active: 14.9 µM

Question: Which results are given for `Cc1c([N+](=O)[O-])c(C)c([N+](=O)[O-])c(C(C)(C)C)c1[N+](=O)[O-]`?
Answer: AC50 [8]: inconclusive: 46.1 µM; AC50 [1]: inconclusive: 0.0083 µM; AC50 [3]: inconclusive: 75.3 µM; AC50 [6]: active: 42.5 µM; outcome [2]: inactive

Question: What does the source list for `CC(=O)C(Cl)C(=O)N(C)C` (stereo not drawn)?
Answer: AC50 [5]: inconclusive: 46.1 µM; AC50 [1]: inconclusive: 46.1 µM; outcome [6]: inactive

Question: With `C=CC(=O)OCCCCOC(=O)C=C` as the molecule, how does the AC50 [5] read?
Answer: active: 69.5 µM

Question: What about the AC50 [1] of the same molecule?
Answer: inconclusive: 85.7 µM

Question: What about the AC50 [6] of the same molecule?
Answer: inconclusive: 0.00319 µM

Question: What about the outcome [7] of the same molecule?
Answer: inactive

Question: What about the AC50 [2] of the same molecule?
Answer: inconclusive: 86.3 µM

Question: With `COc1nc(C)nc(NC(=O)NS(=O)(=O)c2ccccc2Cl)n1` as the molecule, how does the outcome [5] read?
Answer: inactive

Question: And the AC50 [1]?
Answer: inconclusive: 45.6 µM

Question: What about the AC50 [6] of the same molecule?
Answer: inconclusive: 1.13 µM

Question: And the AC50 [7]?
Answer: inconclusive: 84.8 µM

Question: For `CCOC(=O)C(SP(=S)(OC)OC)c1ccccc1` (stereo not drawn), which outcome [8] is on record?
Answer: inactive

Question: And the AC50 [6]?
Answer: inconclusive: 83.4 µM

Question: What about the outcome [2] of the same molecule?
Answer: inactive

Question: For `Nc1ccccc1C(=O)Oc1ccc2ccccc2c1`, which AC50 [5] is on record?
Answer: active: 85.3 µM

Question: And the outcome [1]?
Answer: inactive

Question: And the outcome [6]?
Answer: inactive

Question: And the AC50 [7]?
Answer: active: 83.5 µM

Question: And the outcome [2]?
Answer: inactive

Question: Which results are given for `CN1C[C@H](C(=O)N[C@]2(C)O[C@@]3(O)[C@@H]4CCCN4C(=O)[C@H](Cc4ccccc4)N3C2=O)C=C2c3cccc4[nH]cc(c34)C[C@H]21`?
Answer: outcome [8]: inactive; outcome [1]: inactive; AC50 [6]: active: 71.4 µM

Question: For `CC1=C(C(=O)Nc2ccccc2)S(=O)(=O)CCO1`, which AC50 [1] is on record?
Answer: inconclusive: 46.1 µM

Question: What about the AC50 [7] of the same molecule?
Answer: active: 15.8 µM

Question: What about the AC50 [4] of the same molecule?
Answer: active: 21 µM

Question: Which outcome [8] does the source give for `CCC(C)c1cccc(C(C)CC)c1O` (stereo not drawn) here?
Answer: inactive

Question: What about the AC50 [3] of the same molecule?
Answer: inconclusive: 46.1 µM

Question: What about the outcome [6] of the same molecule?
Answer: inactive

Question: What about the AC50 [2] of the same molecule?
Answer: inconclusive: 46.1 µM

Question: For `Brc1ccc(Br)cc1`, which AC50 [8] is on record?
Answer: inconclusive: 31.6 µM

Question: What about the AC50 [1] of the same molecule?
Answer: inconclusive: 14.2 µM

Question: What about the outcome [1] of the same molecule?
Answer: inactive

Question: And the AC50 [6]?
Answer: inconclusive: 45.4 µM

Question: What about the outcome [6] of the same molecule?
Answer: inactive

Question: What about the AC50 [7] of the same molecule?
Answer: inconclusive: 46.1 µM

Question: What about the AC50 [2] of the same molecule?
Answer: inconclusive: 79.8 µM

Question: Which outcome [1] does the source give for `Cc1ccccc1C(=O)Nc1cccc(OC(C)C)c1` here?
Answer: inactive

Question: What about the AC50 [3] of the same molecule?
Answer: inconclusive: 46.1 µM

Question: What about the outcome [6] of the same molecule?
Answer: inactive

Question: For `O=[N+]([O-])c1cc([N+](=O)[O-])c2ccccc2c1`, which outcome [3] is on record?
Answer: inactive

Question: What about the outcome [6] of the same molecule?
Answer: inactive

Question: And the outcome [2]?
Answer: inactive

Question: Which results are given for `Cc1ccc2c(c1N)C(=O)c1ccccc1C2=O`?
Answer: outcome [5]: inactive; outcome [7]: inactive

Question: For `CCCN(CC1CC1)c1c([N+](=O)[O-])cc(C(F)(F)F)cc1[N+](=O)[O-]`, which AC50 [8] is on record?
Answer: inconclusive: 46.1 µM

Question: What about the AC50 [4] of the same molecule?
Answer: inconclusive: 14 µM

Question: With `CNC(=O)ON=C(CSC)C(C)(C)C` as the molecule, how does the AC50 [4] read?
Answer: inconclusive: 46.1 µM

Question: Which results are given for `O=C(O)C(Br)Br`?
Answer: AC50 [5]: inconclusive: 13.7 µM; AC50 [6]: inconclusive: 0.00267 µM; AC50 [2]: inconclusive: 0.974 µM; outcome [2]: inactive

Question: With `CCOC(=O)CC(=O)CCl` as the molecule, how does the AC50 [3] read?
Answer: active: 77.9 µM

Question: What about the AC50 [6] of the same molecule?
Answer: inconclusive: 9.14 µM

Question: What about the outcome [7] of the same molecule?
Answer: inactive

Question: What about the AC50 [2] of the same molecule?
Answer: inconclusive: 46.1 µM

Question: For `c1ccc(-c2cccc(-c3ccccc3)c2)cc1`, which AC50 [3] is on record?
Answer: inconclusive: 46.5 µM

Question: What about the outcome [3] of the same molecule?
Answer: inactive

Question: Which AC50 [7] does the source give for `CCOP(=O)(OCC)Oc1nc(Cl)c(Cl)cc1Cl` here?
Answer: active: 38.3 µM

Question: And the AC50 [4]?
Answer: active: 61.7 µM

Question: What does the source list for `O=S(=O)(c1ccc(Cl)cc1)c1cc(Cl)c(Cl)cc1Cl`?
Answer: AC50 [8]: inconclusive: 46 µM; outcome [8]: inactive; outcome [3]: inactive; AC50 [6]: inconclusive: 1.1 µM and inconclusive: 46 µM; AC50 [2]: inconclusive: 14.2 µM

Question: With `C=CC(=O)NC(C)(C)CC(C)=O` as the molecule, how does the AC50 [1] read?
Answer: inconclusive: 46.1 µM

Question: What about the AC50 [7] of the same molecule?
Answer: inconclusive: 46.1 µM

Question: And the AC50 [4]?
Answer: inconclusive: 46.1 µM

Question: What does the source list for `Nc1ccccc1C(=O)OCCc1ccccc1`?
Answer: AC50 [5]: inconclusive: 0.0117 µM; AC50 [2]: inconclusive: 46.1 µM

Question: For `CC(C)CCCCCCCOP(=O)(Oc1ccccc1)Oc1ccccc1`, which outcome [1] is on record?
Answer: inactive

Question: For `CC1(C)C(=O)NC(=O)NC1=O`, which outcome [5] is on record?
Answer: inactive

Question: What about the AC50 [4] of the same molecule?
Answer: inconclusive: 78.1 µM

Question: Which AC50 [8] does the source give for `CNC(=O)ON=CC(C)(C)SC` here?
Answer: inconclusive: 46.4 µM

Question: And the AC50 [1]?
Answer: inconclusive: 0.697 µM

Question: What about the outcome [6] of the same molecule?
Answer: inactive

Question: And the AC50 [7]?
Answer: inconclusive: 46.4 µM

Question: And the outcome [7]?
Answer: inactive

Question: What about the AC50 [2] of the same molecule?
Answer: inconclusive: 0.000119 µM
